Test: molar heat capacity at constant pressure
Conditions: 101.33 kPa, Liquid, DSC

O=C(c1ccccc1)c1ccccc1 [benzophenone]
Conditions	molar heat capacity at constant pressure [J/K/mol]
245 K	265.3
255 K	269.9
265 K	274.5
275 K	279
285 K	283.6
295 K	288.1
305 K	292.7
315 K	297.3
325 K	301.8
335 K	306.4
345 K	311

— the NIST ThermoML archive (doi:10.1016/j.tca.2018.08.015)
